For some of these results: A weaker result is weaker than the reference pair of the same experiment. For some of these results: Protein sequences can lack the tags named with them. For some of these results: For at least one entry, the source does not settle the construct or the ends of the probe. For some of these results: Negatives hold for the conditions tested. For some of these results: At least one result comes from cells or an extract, where the contact may be indirect.
Legend:
GST-ZC3H7B(415-956) = target: T1, GST-ZC3H7B(415-956) (UniProt Q9UGR2); assay: filter binding; conditions: Filter binding: 50 mM Tris-HCl pH 8.0, 150 mM NaCl, 5% glycerol, 20 C; recombinant protein; residues 415-956; protein details: N-terminal GST (pGEX-4T-1, TEV site); label: 5' 32P
T1 sequence (looked up): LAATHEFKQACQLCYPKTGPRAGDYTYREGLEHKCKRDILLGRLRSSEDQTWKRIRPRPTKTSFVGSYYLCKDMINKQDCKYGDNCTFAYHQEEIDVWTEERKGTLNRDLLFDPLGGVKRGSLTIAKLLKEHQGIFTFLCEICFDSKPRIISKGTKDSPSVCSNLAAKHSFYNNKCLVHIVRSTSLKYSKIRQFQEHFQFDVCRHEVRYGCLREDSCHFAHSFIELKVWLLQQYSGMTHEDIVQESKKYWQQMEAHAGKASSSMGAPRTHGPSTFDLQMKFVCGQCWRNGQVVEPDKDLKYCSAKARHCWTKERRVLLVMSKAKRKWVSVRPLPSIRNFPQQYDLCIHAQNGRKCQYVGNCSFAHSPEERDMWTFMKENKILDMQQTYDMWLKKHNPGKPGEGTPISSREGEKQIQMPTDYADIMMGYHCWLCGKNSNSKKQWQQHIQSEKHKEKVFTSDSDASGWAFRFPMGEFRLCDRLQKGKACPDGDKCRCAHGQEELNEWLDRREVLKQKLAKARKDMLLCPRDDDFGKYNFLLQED

FH-ZC3H7B [1] = target: T2, FH-ZC3H7B (UniProt Q9UGR2); assay: pull-down; conditions: 32P-RNA 1 pmol on FLAG beads; protein in a lysate after overexpression; residues 2-977; protein details: N-terminal FLAG-HA; label: 32P (or unlabeled as competitor); letters put together from the description
T2 sequence (looked up): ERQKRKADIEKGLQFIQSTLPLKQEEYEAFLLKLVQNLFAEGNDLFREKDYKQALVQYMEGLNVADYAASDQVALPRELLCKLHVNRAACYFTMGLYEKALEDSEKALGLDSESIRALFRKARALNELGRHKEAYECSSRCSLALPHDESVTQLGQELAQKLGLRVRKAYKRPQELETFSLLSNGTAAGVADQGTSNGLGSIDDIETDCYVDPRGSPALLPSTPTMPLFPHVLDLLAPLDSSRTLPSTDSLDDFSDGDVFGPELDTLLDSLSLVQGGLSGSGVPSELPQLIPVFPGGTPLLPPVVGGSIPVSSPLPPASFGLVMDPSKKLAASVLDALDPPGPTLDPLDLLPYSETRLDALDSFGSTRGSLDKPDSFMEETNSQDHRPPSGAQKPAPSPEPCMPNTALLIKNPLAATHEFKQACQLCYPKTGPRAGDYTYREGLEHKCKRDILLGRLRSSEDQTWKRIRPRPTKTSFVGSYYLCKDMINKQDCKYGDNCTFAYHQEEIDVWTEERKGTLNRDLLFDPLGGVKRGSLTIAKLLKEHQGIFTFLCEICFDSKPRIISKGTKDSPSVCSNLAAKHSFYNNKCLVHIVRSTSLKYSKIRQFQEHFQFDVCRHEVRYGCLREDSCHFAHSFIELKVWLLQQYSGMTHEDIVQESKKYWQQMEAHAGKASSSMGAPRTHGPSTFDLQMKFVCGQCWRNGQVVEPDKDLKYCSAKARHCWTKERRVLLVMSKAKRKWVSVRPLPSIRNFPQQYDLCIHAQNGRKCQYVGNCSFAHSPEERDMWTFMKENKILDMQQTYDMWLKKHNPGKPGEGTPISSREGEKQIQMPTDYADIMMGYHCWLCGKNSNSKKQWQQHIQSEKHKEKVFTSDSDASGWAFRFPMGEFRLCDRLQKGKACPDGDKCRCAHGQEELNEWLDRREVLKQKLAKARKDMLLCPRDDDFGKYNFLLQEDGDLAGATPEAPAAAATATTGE

FH-ZC3H7B [2] = target: T2, FH-ZC3H7B; assay: competition with a labelled probe; conditions: unlabeled, 1-4 pmol, EMSA: 20 mM HEPES-KOH pH 7.4, 100 mM NaCl, 1 mM MgCl2, 0.1% Tween20, 40 mM EDTA, 10% glycerol, 70 C, protein in a lysate after overexpression, residues 2-977, protein details: N-terminal FLAG-HA, label: 32P (or unlabeled as competitor), letters put together from the description
[3] = tested on: PfuSmAP1-Strep (Pyrococcus furiosus); assay: EMSA; conditions: 40 mM EDTA, 70 C, 0-400 nM heptamer, EMSA: 20 mM HEPES-KOH pH 7.4, 100 mM NaCl, 1 mM MgCl2, 0.1% Tween20, 40 mM EDTA, 10% glycerol, recombinant protein, protein details: C-terminal StrepII, label: 5' HEX

Sequence | binding result (FH-ZC3H7B [1]) | binding result [3] | other results
AAAGUGAAGU [ZC3H7B mutant motif RNA] | – | – | binding result (GST-ZC3H7B(415-956)): binds more weakly
GGGACACACACACAUAGAUACACACACAC [ZC3H7B Motif 2 (AUAGAU)] | binds | – | binding result (FH-ZC3H7B [2]; against labeled Motif 1, better competitor): binds
GAACCCCCCCCCAAUGAAC [C-rich control RNA] | – | no binding | –
GGGACACACACACAGUUUCGACACACACAC [ZC3H7B Motif 1 (AGUUUCG)] | binds | – | binding result (FH-ZC3H7B [2]; against labeled Motif 2, competes less than Motif 2): binds more weakly
GAAUUUGAGUUUAAUGAAC [SmAP1 motif RNA] | – | binds | –
